Article PMC6491619, “Development and application of a high-content virion display human GPCR array” (Nature Communications, 2019)
No constants are given. Whether binding was seen depends on the method and setting. Some binding calls cover weakened binding; strength is not graded here.

The chains behind the UniProt entries cited, without tags or fusion partners. Where a name states a change or a piece, a line headed by the entry shows the natural chain unless it says otherwise.
UniProt Q969F8: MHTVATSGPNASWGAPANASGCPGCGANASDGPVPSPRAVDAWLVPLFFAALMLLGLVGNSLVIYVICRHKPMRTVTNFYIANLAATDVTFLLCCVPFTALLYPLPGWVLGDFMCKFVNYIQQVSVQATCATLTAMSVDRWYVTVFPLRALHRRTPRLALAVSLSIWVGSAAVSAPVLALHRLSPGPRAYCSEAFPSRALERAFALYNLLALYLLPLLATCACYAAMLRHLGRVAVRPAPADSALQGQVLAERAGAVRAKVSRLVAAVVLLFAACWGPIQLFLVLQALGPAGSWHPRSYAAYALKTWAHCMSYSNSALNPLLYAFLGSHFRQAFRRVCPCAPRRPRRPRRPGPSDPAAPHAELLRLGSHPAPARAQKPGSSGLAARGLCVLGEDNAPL
UniProt P61278: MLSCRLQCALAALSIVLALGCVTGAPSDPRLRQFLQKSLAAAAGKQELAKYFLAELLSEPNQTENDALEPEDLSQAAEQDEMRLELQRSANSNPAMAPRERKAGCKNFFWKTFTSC

How the values were obtained:
[1] = molecular target: T1, VirD-GABBR2 (human) (UniProt O75899); experiment: fluorescent ligand binding to infected cells; Vero cells infected with HSV-GPCR virus (MOI ~10, 16 h), blocked in 3% BSA PBS; labeled SRIF-14 at 8 uM without or with cold SRIF-14 (800 uM) or cyclosomatostatin (800 uM); signals normalized to K082-infected cells; only the binder purified
T1 sequence: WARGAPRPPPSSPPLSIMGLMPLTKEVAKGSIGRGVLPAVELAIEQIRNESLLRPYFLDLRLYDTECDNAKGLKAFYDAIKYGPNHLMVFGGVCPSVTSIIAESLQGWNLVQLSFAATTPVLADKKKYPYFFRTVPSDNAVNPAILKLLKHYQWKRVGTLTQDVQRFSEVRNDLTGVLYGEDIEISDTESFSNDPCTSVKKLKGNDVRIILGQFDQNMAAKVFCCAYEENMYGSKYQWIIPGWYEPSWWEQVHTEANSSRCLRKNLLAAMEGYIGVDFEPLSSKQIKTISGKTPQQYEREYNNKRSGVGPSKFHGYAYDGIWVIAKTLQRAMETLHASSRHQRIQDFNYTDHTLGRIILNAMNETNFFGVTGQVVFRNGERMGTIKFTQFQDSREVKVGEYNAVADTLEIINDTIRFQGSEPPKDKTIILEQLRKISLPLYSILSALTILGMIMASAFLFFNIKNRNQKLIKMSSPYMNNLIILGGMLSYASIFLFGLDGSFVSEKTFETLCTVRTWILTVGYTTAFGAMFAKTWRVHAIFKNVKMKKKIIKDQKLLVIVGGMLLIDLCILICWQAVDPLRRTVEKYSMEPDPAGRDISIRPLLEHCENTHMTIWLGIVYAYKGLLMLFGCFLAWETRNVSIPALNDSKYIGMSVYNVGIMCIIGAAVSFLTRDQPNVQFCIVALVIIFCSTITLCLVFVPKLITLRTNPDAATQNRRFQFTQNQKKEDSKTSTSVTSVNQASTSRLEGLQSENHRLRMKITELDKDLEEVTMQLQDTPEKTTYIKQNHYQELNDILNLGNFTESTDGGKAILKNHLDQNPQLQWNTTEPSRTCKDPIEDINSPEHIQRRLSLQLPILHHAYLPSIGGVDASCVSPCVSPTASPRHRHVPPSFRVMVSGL

[2] = molecular target: VirD-KISS1R (human) (UniProt Q969F8); experiment: as above
[3] = molecular target: VirD-NTSR1 (human) (UniProt P30989); experiment: as above
[4] = molecular target: T1, VirD-GABBR2 (human); experiment: peptide or protein array; VirD-GPCR array: purified virions printed on epoxy slides, blocked with 3% BSA PBS; Cy5-Dynorphin A (8 uM) or Cy3-SRIF-14 (8 uM) in HEPES buffer for 1 h; Z-scores; only the binder purified
[5] = molecular target: VirD-KISS1R (human) (UniProt Q969F8); experiment: as above
[6] = molecular target: VirD-NTSR1 (human) (UniProt P30989); experiment: as above

Measured: binding

Cy5-labeled SRIF-14 (from UniProt P61278 103-116) (peptide)
binds: [1] | [2] | [3]

Cy3-labeled SRIF-14 (from UniProt P61278 103-116) (peptide)
binds: [4] | [5] | [6]
